Measurements reported in PubChem BioAssay AID504774 (Drosophila RNAi Screening Center, 2011)
Purpose: 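Knock-downs that shift viability of MMS-exposed cells relative to untreated ones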 (primary screen). Cell system: Drosophila Kc167 cells. Reagents: long dsRNA against Drosophila genes, about 0.25 µg dsRNA per well. Time to read-out: about 6 days: 3 days knock-down, then 3 days with or without MMS. Challenge: methyl methanesulphonate 0.004% (w/v) for 3 days after knock-down. Measured: 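Viability in wells given MMS, read as ATP luminescence, normalised by quantiles plate by plate and averaged across replicates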. Direction: mean viability with MMS and viability with MMS: higher = more surviving cells after MMS.
In all, the deposit lists about 23,000 reagents; shown is a random part of those with a known target gene and a result. 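Values are quantile-normalised luminescence on an arbitrary scale; higher means more cells surviving MMS.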 The numbers tell different reagents against one gene apart. A plus sign joins genes that one reagent is predicted to hit. Further read-outs or replicates are left out here. No sequences are given here.

Tsc1 (GeneID 42862) showed mean viability with MMS 4.03e6; viability with MMS, replicate 1 = 4.49e6. CG11041 (GeneID 37278) gave mean viability with MMS 3.67e6; viability with MMS, replicate 1 = 4.24e6. For CG17994 (GeneID 35550), the values are mean viability with MMS 3.56e6; viability with MMS, replicate 1 = 4.16e6. Silencing of CG8679 (GeneID 35395) gave: mean viability with MMS 3.53e6; viability with MMS, replicate 1 = 4.07e6. CG18598 (GeneID 42188) showed mean viability with MMS 3.51e6; viability with MMS, replicate 1 = 3.92e6. Knock-down of CG31404 (GeneID 318714) came out at: mean viability with MMS 3.55e6; viability with MMS, replicate 1 = 3.88e6.

Against Roc1b + Cdc5, the entry reads mean viability with MMS 3.34e6; viability with MMS, replicate 1 = 3.81e6. For CG14377 (GeneID 41649) the deposit lists mean viability with MMS 3.64e6; viability with MMS, replicate 1 = 4.16e6. With knock-down of sprt (GeneID 246397), the record shows mean viability with MMS 3.67e6; viability with MMS, replicate 1 = 4.24e6. For GstD4 (GeneID 48337), the values are mean viability with MMS 4.09e6; viability with MMS, replicate 1 = 4.13e6. For Tmtc4 (GeneID 41867), the entry reads mean viability with MMS 3.47e6; viability with MMS, replicate 1 = 4.12e6. Against disp (GeneID 44274), the values are mean viability with MMS 3.49e6; viability with MMS, replicate 1 = 3.97e6.

After knock-down of CG43693 (GeneID 39231) #1, the screen gave mean viability with MMS 3.48e6; viability with MMS, replicate 1 = 3.86e6. Silencing of CG43693 (GeneID 39231) #2 gave: mean viability with MMS 3.72e6; viability with MMS, replicate 1 = 4.19e6.

Just “viability with MMS, replicate 1” (2 entries from above):
Roc1b + Cdc5: 3.81e6
CG14377 (GeneID 41649): 4.16e6
